The test concerns the target eukaryotic initiation factor 4E (EIF4E) (human (endogenous in HT-1080 and Calu-1)) (UniProt P06730). Kind of test: affinity purification with mass spectrometry; EIF4E immunoprecipitated with an anti-EIF4E antibody from HT-1080 and Calu-1 cells treated with RSL3 (0.5 μM, 4 h); in-gel trypsin digestion, LC-MS/MS.

The chains behind the UniProt entries cited, without tags or fusion partners.
UniProt P06730: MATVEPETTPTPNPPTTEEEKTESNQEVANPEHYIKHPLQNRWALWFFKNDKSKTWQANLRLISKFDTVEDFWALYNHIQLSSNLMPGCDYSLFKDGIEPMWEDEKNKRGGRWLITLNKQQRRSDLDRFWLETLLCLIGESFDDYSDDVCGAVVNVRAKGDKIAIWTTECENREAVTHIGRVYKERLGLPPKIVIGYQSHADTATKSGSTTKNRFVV
UniProt Q9H7Z7: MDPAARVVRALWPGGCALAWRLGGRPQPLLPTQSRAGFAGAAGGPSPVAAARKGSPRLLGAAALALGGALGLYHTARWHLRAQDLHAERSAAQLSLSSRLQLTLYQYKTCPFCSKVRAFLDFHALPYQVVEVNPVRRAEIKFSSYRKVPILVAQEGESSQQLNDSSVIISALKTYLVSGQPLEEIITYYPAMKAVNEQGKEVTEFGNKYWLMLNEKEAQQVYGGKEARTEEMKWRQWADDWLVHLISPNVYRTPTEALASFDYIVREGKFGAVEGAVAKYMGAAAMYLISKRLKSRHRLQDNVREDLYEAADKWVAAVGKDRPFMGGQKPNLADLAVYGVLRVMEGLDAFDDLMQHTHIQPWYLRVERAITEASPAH
UniProt O75131: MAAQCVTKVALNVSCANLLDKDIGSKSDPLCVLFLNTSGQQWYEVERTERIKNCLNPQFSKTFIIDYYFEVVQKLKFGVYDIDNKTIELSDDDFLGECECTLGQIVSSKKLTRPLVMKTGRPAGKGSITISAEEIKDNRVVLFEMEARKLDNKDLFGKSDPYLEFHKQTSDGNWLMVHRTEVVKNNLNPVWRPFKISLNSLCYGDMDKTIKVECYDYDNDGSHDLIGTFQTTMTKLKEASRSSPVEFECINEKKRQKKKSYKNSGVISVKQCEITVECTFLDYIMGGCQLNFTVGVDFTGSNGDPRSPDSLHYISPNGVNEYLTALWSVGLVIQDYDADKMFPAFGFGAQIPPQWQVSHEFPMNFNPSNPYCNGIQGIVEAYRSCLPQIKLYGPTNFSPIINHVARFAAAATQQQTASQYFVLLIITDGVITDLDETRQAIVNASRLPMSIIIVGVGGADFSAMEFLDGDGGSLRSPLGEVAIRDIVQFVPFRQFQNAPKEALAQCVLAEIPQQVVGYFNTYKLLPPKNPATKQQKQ
UniProt P78417: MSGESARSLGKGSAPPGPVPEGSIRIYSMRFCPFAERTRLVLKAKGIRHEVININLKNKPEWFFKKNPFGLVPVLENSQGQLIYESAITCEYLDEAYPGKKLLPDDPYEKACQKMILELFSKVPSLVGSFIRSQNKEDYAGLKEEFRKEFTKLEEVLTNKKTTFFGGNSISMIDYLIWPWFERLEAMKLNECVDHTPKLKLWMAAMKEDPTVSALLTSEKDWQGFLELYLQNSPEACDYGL

This note sets out measurements from paper PMC9588786.

Results are given in words; binding and its absence hold for the method and conditions named. Binding seen in cells or lysates may run through a third protein. Here binding means that the protein was enriched with, or labelled near, the bait; the list need not be complete.

As for “prostaglandin E synthase 2 (PTGES2) (from UniProt Q9H7Z7 1-377) (enzyme)”, the binding entry was “binds”. Turning to “copine 3 (CPNE3) (from UniProt O75131 1-537)”, the binding result is “binds”. The entry for “glutathione S-transferase omega 1 (GSTO1) (from UniProt P78417 1-241) (enzyme)” is “binds”.

B1: isoleucyl-tRNA synthetase 1 (IARS) (enzyme, UniProt P41252 1-1262)
chain: MLQQVPENINFPAEEEKILEFWTEFNCFQECLKQSKHKPKFTFYDGPPFATGLPHYGHILAGTIKDIVTRYAHQSGFHVDRRFGWDCHGLPVEYEIDKTLGIRGPEDVAKMGITEYNNQCRAIVMRYSAEWKSTVSRLGRWIDFDNDYKTLYPQFMESVWWVFKQLYDKGLVYRGVKVMPFSTACNTPLSNFESHQNYKDVQDPSVFVTFPLEEDETVSLVAWTTTPWTLPSNLAVCVNPEMQYVKIKDVARGRLLILMEARLSALYKLESDYEILERFPGAYLKGKKYRPLFDYFLKCKENGAFTVLVDNYVKEEEGTGVVHQAPYFGAEDYRVCMDFNIIRKDSLPVCPVDASGCFTTEVTDFAGQYVKDADKSIIRTLKEQGRLLVATTFTHSYPFCWRSDTPLIYKAVPSWFVRVENMVDQLLRNNDLCYWVPELVREKRFGNWLKDARDWTISRNRYWGTPIPLWVSDDFEEVVCIGSVAELEELSGAKISDLHRESVDHLTIPSRCGKGSLHRISEVFDCWFESGSMPYAQVHYPFENKREFEDAFPADFIAEGIDQTRGWFYTLLVLATALFGQPPFKNVIVNGLVLASDGQKMSKRKKNYPDPVSIIQKYGADALRLYLINSPVVRAENLRFKEEGVRDVLKDVLLPWYNAYRFLIQNVLRLQKEEEIEFLYNENTVRESPNITDRWILSFMQSLIGFFETEMAAYRLYTVVPRLVKFVDILTNWYVRMNRRRLKGENGMEDCVMALETLFSVLLSLCRLMAPYTPFLTELMYQNLKVLIDPVSVQDKDTLSIHYLMLPRVREELIDKKTESAVSQMQSVIELGRVIRDRKTIPIKYPLKEIVVIHQDPEALKDIKSLEKYIIEELNVRKVTLSTDKNKYGIRLRAEPDHMVLGKRLKGAFKAVMTSIKQLSSEELEQFQKTGTIVVEGHELHDEDIRLMYTFDQATGGTAQFEAHSDAQALVLLDVTPDQSMVDEGMAREVINRIQKLRKKCNLVPTDEITVYYKAKSEGTYLNSVIESHTEFIFTTIKAPLKPYPVSPSDKVLIQEKTQLKGSELEITLTRGSSLPGPACAYVNLNICANGSEQGGVLLLENPKGDNRLDLLKLKSVVTSIFGVKNTELAVFHDETEIQNQTDLLSLSGKTLCVTAGSAPSLINSSSTLLCQYINLQLLNAKPQECLMGTVGTLLLENPLGQNGLTHQGLLYEAAKVFGLRSRKLKLFLNETQTQEITEDIPVKTLNMKTVYVSVLPTTADF
For B1, the binding entry is reported as “binds”.

B2: aldehyde dehydrogenase 1 family member B1 (ALDH1B1) (enzyme, UniProt P30837 18-517)
chain: RYSSAAALPSPILNPDIPYNQLFINNEWQDAVSKKTFPTVNPTTGEVIGHVAEGDRADVDRAVKAAREAFRLGSPWRRMDASERGRLLNRLADLVERDRVYLASLETLDNGKPFQESYALDLDEVIKVYRYFAGWADKWHGKTIPMDGQHFCFTRHEPVGVCGQIIPWNFPLVMQGWKLAPALATGNTVVMKVAEQTPLSALYLASLIKEAGFPPGVVNIITGYGPTAGAAIAQHVDVDKVAFTGSTEVGHLIQKAAGDSNLKRVTLELGGKSPSIVLADADMEHAVEQCHEALFFNMGQCCCAGSRTFVEESIYNEFLERTVEKAKQRKVGNPFELDTQQGPQVDKEQFERVLGYIQLGQKEGAKLLCGGERFGERGFFIKPTVFGGVQDDMRIAKEEIFGPVQPLFKFKKIEEVVERANNTRYGLAAAVFTRDLDKAMYFTQALQAGTVWVNTYNIVTCHTPFGGFKESGNGRELGEDGLKAYTEVKTVTIKVPQKNS
With B2, the binding result is on record as “binds”.

B3: hydroxysteroid 17-beta dehydrogenase 4 (HSD17B4) (enzyme, UniProt P51659 1-736)
chain: MGSPLRFDGRVVLVTGAGAGLGRAYALAFAERGALVVVNDLGGDFKGVGKGSLAADKVVEEIRRRGGKAVANYDSVEEGEKVVKTALDAFGRIDVVVNNAGILRDRSFARISDEDWDIIHRVHLRGSFQVTRAAWEHMKKQKYGRIIMTSSASGIYGNFGQANYSAAKLGLLGLANSLAIEGRKSNIHCNTIAPNAGSRMTQTVMPEDLVEALKPEYVAPLVLWLCHESCEENGGLFEVGAGWIGKLRWERTLGAIVRQKNHPMTPEAVKANWKKICDFENASKPQSIQESTGSIIEVLSKIDSEGGVSANHTSRATSTATSGFAGAIGQKLPPFSYAYTELEAIMYALGVGASIKDPKDLKFIYEGSSDFSCLPTFGVIIGQKSMMGGGLAEIPGLSINFAKVLHGEQYLELYKPLPRAGKLKCEAVVADVLDKGSGVVIIMDVYSYSEKELICHNQFSLFLVGSGGFGGKRTSDKVKVAVAIPNRPPDAVLTDTTSLNQAALYRLSGDWNPLHIDPNFASLAGFDKPILHGLCTFGFSARRVLQQFADNDVSRFKAIKARFAKPVYPGQTLQTEMWKEGNRIHFQTKVQETGDIVISNAYVDLAPTSGTSAKTPSEGGKLQSTFVFEEIGRRLKDIGPEVVKKVNAVFEWHITKGGNIGAKWTIDLKSGSGKVYQGPAKGAADTTIILSDEDFMEVVLGKLDPQKAFFSGRLKARGNIMLSQKLQMILKDYAKL
As for B3, the binding entry is “binds”.
